# Some of the results follow. Further columns of the screen follow, without active or inactive calls. The list favours compounds with an active or inconclusive main result. Words in brackets tell the shape of the fitted curve; partial curves, single points and poor fits give uncertain potencies.
# Assay: IkB Signaling
# Details: ABC-DLBCL IkBa-CBG/CBR dual luciferase ratio (green luciferase fused to IkBa over red control in OCI-Ly3 lymphoma cells), 4 h
# In short: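 In this assay, an IκBα–CBG68 fusion accumulates when IKK-driven degradation is blocked; native CBR normalizes for cell number. OCI-Ly3 cells were treated 4 h with compound and doxycycline, then green and red light read after Chroma-Glo addition.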
# [1] = measured here: control luc red channel unless noted
# [2] = measured here: IkB-luc green channel
# [3] = measured here: control luc red channel
smiles,measurement,setting,value
CCOc1ccc(C(=O)Nc2ccc3c(c2)N(C(C)=O)CCC3)cc1OCC,AC50,[1],"39.8 µM [falling, partial curve]"
Cc1ccc(-n2nc3c(N4CCC(C(=O)N(C)Cc5ccccc5)CC4)nnc(C)c3c2C)cc1,AC50,[1],"12.6 µM [falling, single point]"
Cn1cnnc1Sc1nc2ccccc2nc1NS(=O)(=O)c1ccccc1,AC50,[1],"3.16 µM [falling, partial curve]"
CC(=O)N1c2ccc(S(=O)(=O)NCC3CCC(C(=O)Nc4cc(C)cc(C)c4)CC3)cc2CC1C (stereo not given),AC50,[1],"10 µM [falling, partial curve]"
CC(=O)Nc1ccc(S(=O)(=O)Nc2nc3n(n2)C(c2ccccc2)C=C(c2ccc(Cl)cc2)N3)cc1 (stereo not given),AC50,[1],"20 µM [falling, single point]"
O=C(NCCN1CCCCC1)c1ccc(Cn2c(SCc3ccc(F)cc3)nc3cccnc32)cc1,AC50,[1],"20 µM [falling, partial curve]"
CN(C)c1ccc(CN(Cc2ccco2)C(=O)c2ccc(F)cc2)cc1,AC50,[1],"25.1 µM [falling, partial curve]"
COc1ccccc1CNC(=O)CCC(=O)N1Cc2ccccc2Oc2ncccc21,AC50,[1],"3.98 µM [rising, single point]"
COc1ccc(-c2nc3sc(CCNS(=O)(=O)c4c(C)cc(C)cc4C)c(C)n3n2)cc1,AC50,[1],"25.1 µM [falling, partial curve]"
Cc1c(C(=O)OCC2CCCO2)[nH]c2c1C(=O)CC(c1ccc(N(C)C)cc1)C2 (stereo not given),AC50,[1],"39.8 µM [rising, single point] [measured here: IkB-luc green channel]"
Cc1cc(SCC(=O)Nc2nsc(-c3ccc(C(C)(C)C)cc3)n2)nc2ccccc12,AC50,[1],"3.98 µM [falling, full curve]"
COc1cccc(N2CCN(C(=O)c3c4c(nc5ccccc35)C(=O)N(C3CCCCC3)C4)CC2)c1,AC50,[1],"10 µM [falling, partial curve]"
CN(C)CCSc1nnc(-c2ccccc2)o1,AC50,[1],"10 µM [falling, partial curve]"
CCOC(=O)Cn1c(=O)oc2cc(S(=O)(=O)N3CCCC(C)C3)ccc21 (stereo not given),AC50,[1],"39.8 µM [falling, single point]"
Cc1ccc(C(=O)CSc2nnc(COc3cccc(C)c3)o2)cc1,AC50,[1],"15.8 µM [falling, partial curve]"
O=C(NCc1ccc(Cl)cc1)c1ccc2oc(=O)n(Cc3ccccc3)c2c1,AC50,[1],"0.158 µM [rising, full curve, poor fit]"
CCOc1ccc(-c2n[nH]c(C)c2-c2ccccc2OC)c(O)c1,AC50,[1],"15.8 µM [falling, partial curve]"
CCCCOC(=O)Cn1nnc2sc(-c3ccccc3)cc2c1=O,AC50,[1],"15.8 µM [falling, single point]"
O=C(CSc1ncc(-c2ccccc2)[nH]1)Nc1ccc(F)cc1F,AC50,[1],"12.6 µM [falling, partial curve]"
CCSc1nc2c(c(=O)n(C)c(=O)n2C)n1Cc1ccc(Cl)cc1,AC50,[1],"25.1 µM [falling, partial curve]"
CCc1ccccc1N1C(=O)N(CC(=O)c2ccc(Cl)cc2)c2ccccc2S1(=O)=O,AC50,[1],"31.6 µM [falling, single point]"
CCOC(=O)c1ccc(NCn2c(=O)oc3ccccc32)cc1,AC50,[1],"2.51 µM [falling, full curve]"
CCOc1ccc(C2=C(C(=O)CC)Sc3nncn3N2C(=O)CC)cc1,AC50,[2],"25.1 µM [rising, partial curve]"
same,AC50,[3],"39.8 µM [falling, single point]"
O=C(Nc1ccc(Cl)cc1)c1cc(S(=O)(=O)N2CCCc3ccccc32)ccc1F,AC50,[1],"10 µM [falling, partial curve]"
CCOC(=O)c1noc2ncn(Cc3cccc(C#N)c3)c(=O)c12,AC50,[1],"0.631 µM [falling, full curve, poor fit]"
O=C(CCCn1c(=O)[nH]c2ccsc2c1=O)N1CCN(c2cccc(C(F)(F)F)c2)CC1,AC50,[1],"15.8 µM [falling, partial curve]"
CCOC(=O)c1ccccc1NC(=O)c1c(O)c2ccccc2n(CC)c1=O,AC50,[1],"0.0631 µM [falling, full curve]"
CCc1nnc(NC(=O)CSc2ncc(-c3ccccc3)n2C)s1,AC50,[1],"31.6 µM [falling, partial curve]"
CCNc1nc(NC(C)CC)nc(Oc2ccc(OCC)nn2)n1 (stereo not given),AC50,[1],"10 µM [rising, partial curve]"
CC(C)C[C@H](N)c1nnc(S(=O)(=O)Cc2cccc(F)c2)o1,AC50,[1],"12.6 µM [falling, partial curve]"
Cc1ccc(C)c(NC(=O)c2nnn(Cc3ccccc3C)c2N)c1,AC50,[1],"15.8 µM [falling, partial curve]"
COc1ccc(NCc2cc3cc4c(cc3n(CC(=O)Nc3ccccc3)c2=O)OCO4)cc1,AC50,[1],"10 µM [falling, partial curve]"
CCOC(=O)Cc1ccc(NC(=O)N(C(C)C)C2CCN(C(C)=O)CC2)cc1,AC50,[1],"15.8 µM [falling, partial curve]"
CCOc1ccc(CNC(=O)Cn2cc3c(n2)-c2c(oc(C(=O)N4CCCC4)c2C)CC3)cc1,AC50,[1],"12.6 µM [falling, partial curve]"
CCCC1=Nc2cc(C(=O)NCC(C)c3ccccc3)ccc2Sc2ccccc21 (stereo not given),AC50,[1],"10 µM [falling, partial curve, poor fit]"
Cc1ccc(C2c3c(-c4ccccc4O)n[nH]c3C(=O)N2CCc2ccccc2)cc1 (stereo not given),AC50,[1],"7.94 µM [falling, full curve]"
CCOC(=O)C(C(=O)OCC)c1cc(Br)c2noc3c2c1C(=O)c1ccccc1-3,AC50,[2],"1.58 µM [rising, single point]"
same,AC50,[3],"3.16 µM [falling, full curve, poor fit]"
CCCNC(=O)c1c(NC(=O)c2ccccc2F)sc2c1CCCCC2,AC50,[1],"12.6 µM [falling, partial curve]"
Cc1ccc(-c2nc(C(=O)Nc3cccc(C#N)c3)c3n2CCCCC3)cc1,AC50,[1],"0.02 µM [falling, full curve]"
Cn1c(CN2CCOCC2)nc2cc(NC(=O)c3ccc(F)cc3)ccc21,AC50,[1],"12.6 µM [falling, partial curve]"
O=C1c2ccccc2C(=O)C1(c1ccccc1)N1CCN(c2cccc(C(F)(F)F)c2)CC1,AC50,[1],"10 µM [falling, partial curve]"
CCOc1ccccc1NC(=O)CCc1nc(-c2cccc(C)c2)no1,AC50,[1],"25.1 µM [falling, partial curve]"
COc1ccc(-c2nc(SCC(=O)Nc3ccc4c(c3)OCO4)c(-c3ccc(F)cc3)[nH]2)cc1OC,AC50,[1],"39.8 µM [falling, single point]"
COc1ccc(Cl)cc1NC(=O)c1cc2ccccn2n1,AC50,[1],"0.126 µM [rising, full curve, poor fit]"
COc1cccc(-n2c(=O)c3sccc3n(Cc3cc(=O)n4cc(Cl)ccc4n3)c2=O)c1,AC50,[1],"0.501 µM [rising, full curve]"
CCN(CC(=O)Nc1c(C(=O)OC)[nH]c2ccccc12)c1ccc2c(c1)OCO2,AC50,[1],"15.8 µM [falling, partial curve]"
COc1ccc(N2CCN(C(=O)c3c(C)oc4nc(C)nc(N5CCCC5)c34)CC2)cc1,AC50,[1],"39.8 µM [falling, single point]"
Nc1ccc(C2CCCc3nonc32)c2nonc12 (stereo not given),AC50,[1],"2.51 µM [falling, full curve]"
COc1ccc(-c2nc(C)c(CCNC(=O)c3cccs3)s2)cc1,AC50,[1],"39.8 µM [falling, single point]"
CC1CN(S(=O)(=O)c2cn(C)c(=O)n(C)c2=O)CC(C)O1 (stereo not given),AC50,[1],"20 µM [falling, partial curve]"
CCOc1ccc(OCc2ccc(C(=O)Nc3ccc(Cl)cn3)o2)cc1,AC50,[1],"15.8 µM [falling, partial curve]"
Cc1ccccc1-c1nnc(SCC(=O)N2CCCc3ccccc32)o1,AC50,[1],"12.6 µM [falling, partial curve]"
O=C(NCc1cccs1)c1cc2c(s1)CCCC2,AC50,[1],"12.6 µM [falling, partial curve]"
COc1cc(Cl)c(C)cc1NC(=O)c1nn(-c2ccc(C)cc2)c(=O)n(C)c1=O,AC50,[1],"10 µM [falling, partial curve]"
COc1cccc(NC(=O)CSc2c(C)cnc3c2c(=O)n(C)c(=O)n3C)c1,AC50,[1],"3.16 µM [rising, full curve, poor fit] [measured here: IkB-luc green channel]"
COc1ccc2oc(=O)c(C(=O)N3CCN(c4cc(Cl)ccc4Cl)CC3)cc2c1,AC50,[1],"39.8 µM [falling, single point]"
CC(C)(C)c1ccc(S(=O)(=O)/C=C\C#N)cc1,AC50,[2],"6.31 µM [falling, full curve]"
same,AC50,[3],"6.31 µM [falling, full curve]"
CCCC(=O)Nc1cccc(-c2nc3ncccc3o2)c1,AC50,[1],"39.8 µM [falling, single point]"
COc1cccc(-c2nc(Nc3ccncc3)c3ccccc3n2)c1,AC50,[1],"3.16 µM [falling, single point] [measured here: IkB-luc green channel]"
Cc1ccc(-c2nc(CCNC(=O)C(=O)Nc3ccc(F)cc3F)cs2)cc1,AC50,[1],"2.51 µM [falling, partial curve]"
COc1ccccc1CNC(=O)CCCN1C(=O)CCn2nc(-c3cn(C)c4ccccc34)cc21,AC50,[1],"15.8 µM [falling, single point]"
CCc1ccc(-c2ccc(C(=O)O)cc2)nc1,AC50,[1],"15.8 µM [falling, partial curve]"

# Fetched one by one from the entries so far:
smiles,measurement,setting,value
Cn1c(CN2CCOCC2)nc2cc(NC(=O)c3ccc(F)cc3)ccc21,AC50,[1],"12.6 µM [falling, partial curve]"
COc1cccc(-n2c(=O)c3sccc3n(Cc3cc(=O)n4cc(Cl)ccc4n3)c2=O)c1,AC50,[1],"0.501 µM [rising, full curve]"
CCOc1ccc(OCc2ccc(C(=O)Nc3ccc(Cl)cn3)o2)cc1,AC50,[1],"15.8 µM [falling, partial curve]"
COc1cccc(NC(=O)CSc2c(C)cnc3c2c(=O)n(C)c(=O)n3C)c1,AC50,[1],"3.16 µM [rising, full curve, poor fit] [measured here: IkB-luc green channel]"
CN(C)c1ccc(CN(Cc2ccco2)C(=O)c2ccc(F)cc2)cc1,AC50,[1],"25.1 µM [falling, partial curve]"

# Reference: PubChem BioAssay AID445 (National Center for Advancing Translational Sciences (NCATS), 2006)
